# From US20230135093A1, “TRIAZOLYL DERIVATIVES AS GABA A ALPHA5 PAM” (Hoffmann-La Roche Inc., priority 2020, published 2023)
# By UniProt entry, the sequences of proteins in these tests, tags left out. Residues count along the entry.
# UniProt P18507, 40-475: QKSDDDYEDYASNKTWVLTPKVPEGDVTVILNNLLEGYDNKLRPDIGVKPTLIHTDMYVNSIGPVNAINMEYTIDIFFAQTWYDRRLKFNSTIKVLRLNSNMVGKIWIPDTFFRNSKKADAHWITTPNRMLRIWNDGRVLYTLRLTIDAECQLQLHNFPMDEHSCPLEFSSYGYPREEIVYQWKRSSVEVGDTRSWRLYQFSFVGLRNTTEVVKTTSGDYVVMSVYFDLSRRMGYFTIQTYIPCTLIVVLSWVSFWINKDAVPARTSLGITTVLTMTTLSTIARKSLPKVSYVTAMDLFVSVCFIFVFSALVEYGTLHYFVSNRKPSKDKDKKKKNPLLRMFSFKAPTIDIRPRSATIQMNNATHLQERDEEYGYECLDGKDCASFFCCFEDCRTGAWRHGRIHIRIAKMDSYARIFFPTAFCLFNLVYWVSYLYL
# UniProt P31644, 32-462: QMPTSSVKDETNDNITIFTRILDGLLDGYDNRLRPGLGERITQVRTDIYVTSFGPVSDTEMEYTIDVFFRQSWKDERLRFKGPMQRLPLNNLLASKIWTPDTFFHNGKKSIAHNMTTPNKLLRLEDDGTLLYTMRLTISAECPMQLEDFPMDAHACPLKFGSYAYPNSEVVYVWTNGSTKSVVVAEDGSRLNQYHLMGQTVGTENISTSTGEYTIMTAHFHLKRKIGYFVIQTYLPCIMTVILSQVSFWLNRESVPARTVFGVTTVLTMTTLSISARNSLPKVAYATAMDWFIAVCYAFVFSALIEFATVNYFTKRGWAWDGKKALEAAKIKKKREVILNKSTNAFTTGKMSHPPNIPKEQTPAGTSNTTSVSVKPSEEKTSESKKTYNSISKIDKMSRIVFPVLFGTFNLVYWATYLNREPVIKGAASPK
# For at least one compound, name, drawing or mass did not settle the structure.
# Molecular target: T1, h-GABA-A α5β3γ2 (Homo sapiens, UniProt P18507+P31644)
# T1 construct: expressed in transfected cells; host or cells: Xenopus laevis oocytes, micro-injected with subunit RNA
# Experiment: Two-electrode voltage clamp electrophysiology in Xenopus oocytes expressing GABAA receptors (modulation of GABA EC20 current)
# Format: cell-based
# Conditions: Table 1, GABA EC20, test compound at approximatively 30 fold its Ki
# Description: Xenopus laevis oocytes at maturation stages V-VI were used for the expression of cloned mRNA encoding GABAA receptor subunits. Oocytes ready for RNA micro-injection were bought from Ecocyte, Castrop-Rauxel, Germany and stored in modified Barth's medium (composition in mM: NaCl 88, KCl 1, NaHCO3 2.4, HEPES 10, MgSO4 0.82, CaNO3 0.33, CaCl2 0.33, pH=7.5) at 20° C. until the experiment.
# Oocytes were plated in 96-well plates to be used in an automated instrument (Robo-ocyte, MultiChannelSystems, Reutlingen, Germany) for microinjection and electrophysiological recordings. Approximately 50 nl of an aqueous solution containing the RNA transcripts for the subunits of the desired GABAA receptor was injected into each oocyte. […]
# Electrophysiological experiments were performed on days 3 to 5 after the micro-injection of mRNA. […] Current traces were recorded at a digitization rate of 10 Hz during and shortly before and after the GABA application. […]
# For the analysis, the digitized current traces of the first and second GABA response were superimposed and, if necessary, rescaled to equal maximal amplitudes. The ratio between the two responses during the time interval of test compound application was calculated point by point. The extremum of the resulting “ratio trace” was taken as the efficacy (“Fold increase”) of the compound expressed as “% modulation of GABA EC20” (100*(Fold increase-1)).
smiles,measurement,value
"Cc1ccc(-c2nnn(C)c2Cn2ncc(N3C[C@@H](C)O[C@@H](C)C3)cc2=O)cn1 [Example 2, 5-(cis-2,6-dimethylmorpholin-4-yl)-2-((3-methyl-5-(6-methylpyridin-3-yl)triazol-4-yl)methyl)pyridazin-3-one]",Fold increase h-GABA-A α5β3γ2 oocyte,3.3
